Measurements from paper PMC6297349.
Results are given in words; binding and its absence hold for the method and conditions named. In cells and extracts the contact can be indirect. Some binding calls cover weakened binding; strength is not graded here.

The chains behind the UniProt entries cited, without tags or fusion partners.
UniProt Q12888: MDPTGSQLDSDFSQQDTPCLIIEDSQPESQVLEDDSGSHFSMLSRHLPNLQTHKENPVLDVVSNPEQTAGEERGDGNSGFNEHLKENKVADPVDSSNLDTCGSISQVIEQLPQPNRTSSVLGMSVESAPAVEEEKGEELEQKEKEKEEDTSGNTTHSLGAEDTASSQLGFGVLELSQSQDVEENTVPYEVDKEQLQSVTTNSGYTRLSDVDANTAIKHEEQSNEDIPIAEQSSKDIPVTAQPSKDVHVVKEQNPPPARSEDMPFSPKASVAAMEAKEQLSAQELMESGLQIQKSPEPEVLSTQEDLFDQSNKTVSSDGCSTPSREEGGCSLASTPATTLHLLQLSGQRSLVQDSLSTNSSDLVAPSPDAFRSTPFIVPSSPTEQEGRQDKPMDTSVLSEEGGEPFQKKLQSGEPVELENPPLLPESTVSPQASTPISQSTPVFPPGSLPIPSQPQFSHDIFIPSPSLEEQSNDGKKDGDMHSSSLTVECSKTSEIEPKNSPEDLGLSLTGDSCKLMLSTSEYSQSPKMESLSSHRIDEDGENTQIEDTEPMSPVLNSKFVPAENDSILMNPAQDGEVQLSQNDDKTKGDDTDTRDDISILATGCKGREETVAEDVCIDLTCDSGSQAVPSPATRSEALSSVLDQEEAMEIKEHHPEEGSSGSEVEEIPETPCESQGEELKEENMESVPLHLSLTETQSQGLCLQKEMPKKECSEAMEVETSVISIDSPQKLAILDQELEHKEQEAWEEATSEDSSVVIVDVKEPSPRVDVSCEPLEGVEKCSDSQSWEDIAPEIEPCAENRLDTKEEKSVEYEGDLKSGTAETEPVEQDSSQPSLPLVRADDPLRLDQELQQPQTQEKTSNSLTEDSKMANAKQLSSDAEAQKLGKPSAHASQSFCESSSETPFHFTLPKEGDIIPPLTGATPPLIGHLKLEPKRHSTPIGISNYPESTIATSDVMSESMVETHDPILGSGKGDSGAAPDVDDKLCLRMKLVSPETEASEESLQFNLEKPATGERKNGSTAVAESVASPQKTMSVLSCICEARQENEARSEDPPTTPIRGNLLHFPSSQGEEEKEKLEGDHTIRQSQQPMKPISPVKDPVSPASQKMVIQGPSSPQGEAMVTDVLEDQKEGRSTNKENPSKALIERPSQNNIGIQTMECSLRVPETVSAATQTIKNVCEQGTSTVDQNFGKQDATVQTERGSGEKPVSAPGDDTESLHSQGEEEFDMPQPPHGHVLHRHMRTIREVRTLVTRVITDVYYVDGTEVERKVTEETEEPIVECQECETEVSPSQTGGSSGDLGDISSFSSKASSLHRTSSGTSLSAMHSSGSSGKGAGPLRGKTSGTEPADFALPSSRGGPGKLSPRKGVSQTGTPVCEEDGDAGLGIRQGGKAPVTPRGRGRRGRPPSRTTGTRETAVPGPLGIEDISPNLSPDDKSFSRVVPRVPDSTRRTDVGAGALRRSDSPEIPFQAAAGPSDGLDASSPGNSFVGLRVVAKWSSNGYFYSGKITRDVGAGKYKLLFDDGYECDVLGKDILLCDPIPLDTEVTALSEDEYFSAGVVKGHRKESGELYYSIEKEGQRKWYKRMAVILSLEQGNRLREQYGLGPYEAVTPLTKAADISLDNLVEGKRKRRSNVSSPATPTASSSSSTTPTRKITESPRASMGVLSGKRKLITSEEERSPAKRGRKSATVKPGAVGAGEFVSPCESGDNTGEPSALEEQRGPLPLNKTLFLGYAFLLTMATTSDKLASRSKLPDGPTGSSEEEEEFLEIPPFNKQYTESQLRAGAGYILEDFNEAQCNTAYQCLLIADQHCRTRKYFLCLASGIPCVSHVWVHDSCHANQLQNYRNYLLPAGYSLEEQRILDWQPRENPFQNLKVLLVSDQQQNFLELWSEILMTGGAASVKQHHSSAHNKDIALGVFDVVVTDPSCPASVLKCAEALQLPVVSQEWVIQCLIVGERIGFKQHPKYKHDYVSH
UniProt P63167: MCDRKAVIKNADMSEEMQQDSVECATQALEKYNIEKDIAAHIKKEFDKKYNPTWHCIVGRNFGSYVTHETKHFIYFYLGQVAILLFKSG

Target: FLAG-HA-tagged wild type 53BP1 (TP53-binding protein 1) (UniProt Q12888)
Assay: co-IP; FLAG-HA-53BP1 immuno-complexes on anti-FLAG M2 magnetic beads from HEK 293T whole cell extracts 48 h after transfection, untreated or irradiated (10 Gy, 1 h); bound at 150 mM KCl, washed at 100 mM KCl, eluted with 3x FLAG peptide; blotted for DYNLL1

binding: binds
Substance: dynein light chain 1 (DYNLL1), endogenous (from UniProt P63167 1-89)
